Test results from the supplement of paper PMC4604168 (melanoma cell lines).
The other results are listed elsewhere or left out. Single values are uncertain, as repeats are few or missing.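 Imaging used 1,536-well plates; nuclei positive for cleaved PARP by antibody were divided by total DNA-stained nuclei to yield the apoptosis fraction. Doses for screening kept most cells viable, and cell lines differ markedly in resting and induced cleaved-PARP levels.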

Test system: SkMel30
Experiment: cleaved PARP positive nuclei fraction relative to DMSO control; melanoma cells; higher = more apoptosis
Settings: library dose: low library concentration; 72 h

Going from `O=C(Oc1ccc([N+](=O)[O-])cc1)N1CCC(C(O)(c2ccc3c(c2)OCO3)c2ccc3c(c2)OCO3)CC1` + Cn1cc(/C=C2\C(=O)Nc3cccnc32)c2ccccc21 [GW441756] (first compound 1 µM, partner dose 0.4 µM) to `C[C@]12O[C@H](C[C@]1(O)CO)n1c3ccccc3c3c4c(c5c6ccccc6n2c5c31)CNC4=O` [Lestaurtinib] + CO[C@@H]1[C@H](N(C)C(=O)c2ccccc2)C[C@H]2O[C@]1(C)n1c3ccccc3c3c4c(c5c6ccccc6n2c5c31)C(=O)NC4 [Midostaurin] (first compound 0.004 µM, partner dose 0.08 µM), the “cleaved PARP positive nuclei fraction” value rises from 58.7% to 69.2%.

Compared with `CO[C@H]1C[C@@H]2CC[C@@H](C)[C@@](O)(O2)C(=O)C(=O)N2CCCC[C@H]2C(=O)O[C@H]([C@H](C)C[C@@H]2CC[C@@H](OCCO)[C@H](OC)C2)CC(=O)[C@H](C)/C=C(\C)[C@@H](O)[C@@H](OC)C(=O)[C@H](C)C[C@H](C)/C=C/C=C/C=C/1C` [everolimus] + Cc1cc(SCc2sc(-c3ccc(C(F)(F)F)c(F)c3)nc2C)ccc1OCC(=O)O [GW0742] (first compound 0.02 µM, partner dose 2 µM), `C[C@]12O[C@H](C[C@]1(O)CO)n1c3ccccc3c3c4c(c5c6ccccc6n2c5c31)CNC4=O` [Lestaurtinib] + NC(=O)Nc1cc(-c2cccc(F)c2)sc1C(=O)N[C@H]1CCCNC1 [AZD7762] (first compound 0.004 µM, partner dose 0.02 µM) is lower in “cleaved PARP positive nuclei fraction” value: 129% for the first, 100% for the second.

Compared with `C[C@]12O[C@H](C[C@]1(O)CO)n1c3ccccc3c3c4c(c5c6ccccc6n2c5c31)CNC4=O` [Lestaurtinib] + CN(NC(=O)CC(=O)NN(C)C(=S)c1ccccc1)C(=S)c1ccccc1 [STA4783] (first compound 0.004 µM, partner dose 0.006 µM), `N#Cc1c(O)c2c(-c3ccc(-c4ccccc4O)cc3)csc2[nH]c1=O` + Cc1cc(SCc2sc(-c3ccc(C(F)(F)F)c(F)c3)nc2C)ccc1OCC(=O)O [GW0742] (first compound 2 µM, partner dose 2 µM) is higher in “cleaved PARP positive nuclei fraction” value: 70.1% for the first, 238% for the second.

`C[C@]12O[C@H](C[C@]1(O)CO)n1c3ccccc3c3c4c(c5c6ccccc6n2c5c31)CNC4=O` [Lestaurtinib] + O=C(O)C(=O)Nc1sc2c(c1C(=O)O)CCNC2 [TCS401] (first compound 0.004 µM, partner dose 1.66667 µM) was tested, and the “cleaved PARP positive nuclei fraction” value was 33.7%.

Test system: SkMel5
Experiment: as above
Settings: library dose: low library concentration; 72 h

Compared with `Oc1cc(-c2nc(-c3ccccc3)[nH]c2-c2ccncc2)ccc1Cl` + C/C(O)=C(\C#N)C(=O)Nc1cc(Br)ccc1Br [LFM-A13] (first compound 0.2 µM, partner dose 2 µM), `c1cc(-c2cnn3cc(-c4ccc(OCCN5CCCCC5)cc4)cnc23)ccn1` [Dorsomorphin] + O=C(Oc1ccc([N+](=O)[O-])cc1)N1CCC(C(O)(c2ccc3c(c2)OCO3)c2ccc3c(c2)OCO3)CC1 [JZL184] (first compound 0.4 µM, partner dose 1 µM) is higher in “cleaved PARP positive nuclei fraction” value: 29.4% for the first, 139% for the second.

Going from `C[As](C)SC[C@H](NC(=O)CC[C@H](N)C(=O)O)C(=O)NCC(=O)O` [Darinaparsin] + COc1ccc2c(c1)CCC1C2CCC2(C)C(NCCCCCCN3C(=O)C=CC3=O)CCC12 [U73122] (first compound 0.4 µM, partner dose 0.4 µM) to `Cc1cc(SCc2sc(-c3ccc(C(F)(F)F)c(F)c3)nc2C)ccc1OCC(=O)O` + c1cc(-c2cnn3cc(-c4ccc(OCCN5CCCCC5)cc4)cnc23)ccn1 [Dorsomorphin] (first compound 2 µM, partner dose 0.4 µM), the “cleaved PARP positive nuclei fraction” value rises from 62.1% to 69.1%.

First: CCc1ccc(CCOc2ccc(CC3SC(=O)NC3=O)cc2)nc1 (stereo not given) [pioglitazone] + O=C(Oc1ccc([N+](=O)[O-])cc1)N1CCC(C(O)(c2ccc3c(c2)OCO3)c2ccc3c(c2)OCO3)CC1 [JZL184] (first compound 2 µM, partner dose 1 µM)
Second: Cc1cc(SCc2sc(-c3ccc(C(F)(F)F)c(F)c3)nc2C)ccc1OCC(=O)O + Cn1cc(/C=C2\C(=O)Nc3cccnc32)c2ccccc21 [GW441756] (first compound 2 µM, partner dose 0.4 µM)
The “cleaved PARP positive nuclei fraction” value of the first is lower: 40.6% for the first, 446% for the second.

First: CC1(C)NC(=O)N(c2ccc([N+](=O)[O-])c(C(F)(F)F)c2)C1=O [nilutamide] + C/C(O)=C(\C#N)C(=O)Nc1cc(Br)ccc1Br [LFM-A13] (first compound 1 µM, partner dose 2 µM)
Second: Nc1cccc2c1CN(C1CCC(=O)NC1=O)C2=O (stereo not given) [lenalidomide] + O=C(Oc1ccc([N+](=O)[O-])cc1)N1CCC(C(O)(c2ccc3c(c2)OCO3)c2ccc3c(c2)OCO3)CC1 [JZL184] (first compound 1 µM, partner dose 1 µM)
The “cleaved PARP positive nuclei fraction” value of the first is lower: 39.6% for the first, 61.3% for the second.

First: C[C@]12O[C@H](C[C@]1(O)CO)n1c3ccccc3c3c4c(c5c6ccccc6n2c5c31)CNC4=O [Lestaurtinib] + O=C(Oc1ccc([N+](=O)[O-])cc1)N1CCC(C(O)(c2ccc3c(c2)OCO3)c2ccc3c(c2)OCO3)CC1 [JZL184] (first compound 0.004 µM, partner dose 1 µM)
Second: CO[C@@H]1[C@H](N(C)C(=O)c2ccccc2)C[C@H]2O[C@]1(C)n1c3ccccc3c3c4c(c5c6ccccc6n2c5c31)C(=O)NC4 [Midostaurin] + C/C(O)=C(\C#N)C(=O)Nc1cc(Br)ccc1Br [LFM-A13] (first compound 0.08 µM, partner dose 2 µM)
The “cleaved PARP positive nuclei fraction” value of the first is higher: 78.3% for the first, 32.7% for the second.

Going from `Oc1cc(-c2nc(-c3ccccc3)[nH]c2-c2ccncc2)ccc1Cl` + O=C(Oc1ccc([N+](=O)[O-])cc1)N1CCC(C(O)(c2ccc3c(c2)OCO3)c2ccc3c(c2)OCO3)CC1 [JZL184] (first compound 0.2 µM, partner dose 1 µM) to `C[C@]12O[C@H](C[C@]1(O)CO)n1c3ccccc3c3c4c(c5c6ccccc6n2c5c31)CNC4=O` [Lestaurtinib] + C[C@@H]1CCN(C(=O)CC#N)C[C@@H]1N(C)c1ncnc2[nH]ccc12 [CP690550] (first compound 0.004 µM, partner dose 1 µM), the “cleaved PARP positive nuclei fraction” value rises from 117% to 138%.

Compared with `O=S(=O)(c1ccccc1)N(CC(F)(F)F)c1ccc(C(O)(C(F)(F)F)C(F)(F)F)cc1` + O=C(Oc1ccc([N+](=O)[O-])cc1)N1CCC(C(O)(c2ccc3c(c2)OCO3)c2ccc3c(c2)OCO3)CC1 [JZL184] (first compound 1.4 µM, partner dose 1 µM), `C[C@]12O[C@H](C[C@]1(O)CO)n1c3ccccc3c3c4c(c5c6ccccc6n2c5c31)CNC4=O` [Lestaurtinib] + C/C(O)=C(\C#N)C(=O)Nc1cc(Br)ccc1Br [LFM-A13] (first compound 0.004 µM, partner dose 2 µM) is higher in “cleaved PARP positive nuclei fraction” value: 36.5% for the first, 70.7% for the second.

First: CCN(CC)CCCCNc1ncc2cc(-c3cc(OC)cc(OC)c3)c(NC(=O)NC(C)(C)C)nc2n1 + C/C(O)=C(\C#N)C(=O)Nc1cc(Br)ccc1Br [LFM-A13] (first compound 0.1 µM, partner dose 2 µM)
Second: CC(C)(C)c1cnc(CSc2cnc(NC(=O)C3CCNCC3)s2)o1 + O=C(Oc1ccc([N+](=O)[O-])cc1)N1CCC(C(O)(c2ccc3c(c2)OCO3)c2ccc3c(c2)OCO3)CC1 [JZL184] (first compound 0.01 µM, partner dose 1 µM)
The “cleaved PARP positive nuclei fraction” value of the first is lower: 24.7% for the first, 42.6% for the second.

First: C[As](C)SC[C@H](NC(=O)CC[C@H](N)C(=O)O)C(=O)NCC(=O)O [Darinaparsin] + O=C(O)C(=O)Nc1sc2c(c1C(=O)O)CCNC2 [TCS401] (first compound 0.4 µM, partner dose 1.66667 µM)
Second: CCN(CC)CCCCNc1ncc2cc(-c3cc(OC)cc(OC)c3)c(NC(=O)NC(C)(C)C)nc2n1 + O=C(Oc1ccc([N+](=O)[O-])cc1)N1CCC(C(O)(c2ccc3c(c2)OCO3)c2ccc3c(c2)OCO3)CC1 [JZL184] (first compound 0.1 µM, partner dose 1 µM)
The “cleaved PARP positive nuclei fraction” value of the first is lower: 35.2% for the first, 42.3% for the second.

First: C[As](C)SC[C@H](NC(=O)CC[C@H](N)C(=O)O)C(=O)NCC(=O)O [Darinaparsin] + Cc1cc(SCc2sc(-c3ccc(C(F)(F)F)c(F)c3)nc2C)ccc1OCC(=O)O [GW0742] (first compound 0.4 µM, partner dose 2 µM)
Second: Cn1nnc2c(C(N)=O)ncn2c1=O [temozolomide] + O=C(Oc1ccc([N+](=O)[O-])cc1)N1CCC(C(O)(c2ccc3c(c2)OCO3)c2ccc3c(c2)OCO3)CC1 [JZL184] (first compound 2 µM, partner dose 1 µM)
The “cleaved PARP positive nuclei fraction” value of the first is higher: 82.6% for the first, 61.4% for the second.

Compared with `CCc1ccc(CCOc2ccc(CC3SC(=O)NC3=O)cc2)nc1` (stereo not given) [pioglitazone] + C/C(O)=C(\C#N)C(=O)Nc1cc(Br)ccc1Br [LFM-A13] (first compound 2 µM, partner dose 2 µM), `C[C@]1(c2nc3c(C(N)=O)cccc3[nH]2)CCCN1` [Veliparib] + O=C(Oc1ccc([N+](=O)[O-])cc1)N1CCC(C(O)(c2ccc3c(c2)OCO3)c2ccc3c(c2)OCO3)CC1 [JZL184] (first compound 1.4 µM, partner dose 1 µM) is higher in “cleaved PARP positive nuclei fraction” value: 59% for the first, 104% for the second.

In the case of `C[As](C)SC[C@H](NC(=O)CC[C@H](N)C(=O)O)C(=O)NCC(=O)O` [Darinaparsin] + COc1cc2ncnc(Nc3ccc(Oc4ccccc4)cc3)c2cc1OC [SrcI1] (first compound 0.4 µM, partner dose 2 µM), the “cleaved PARP positive nuclei fraction” value is reported as 76.7%.
